Measured values reported in patent publication US20150343067A1, “Monolithic Dosage Form for the Modified Release of an Active Ingredient Combination” (HENNIG ARZNEIMITTEL GMBH & CO. KG, priority 2012, published 2015).

Details: storage requires protection from light

storage stability of the active ingredient: only limited storage stability
Compound: C(=C\c1ccccc1)/CN1CCN(C(c2ccccc2)c2ccccc2)CC1 [cinnarizine]
